# Values quoted from earlier work, collected in patent US20070117750A1, “METHOD FOR ENHANCED OCULAR DRUG PENETRATION” (priority 2005, published 2007).
# At least one read-out could not be matched to a standard name with certainty.
# Tested on: isolated bovine RPE-choroid
substance,measurement,value
carboxyfluorescein,permeability relative to 80 kDa FITC-dextran,35 times
